From patent US20230247992A1, “ARTHROPOD CONTROL COMPOSITION” (Firmenich SA, priority 2020, published 2023)
Some entries share one result that the patent states for a list of compounds.

Test system: Aedes aegypti
Assay: in vitro Warm Body assay, substance applied on glass Petri dish on top of the warm body (deterrence and repellence)
Assay type: in vivo
Settings: concentration of 0.04%, 2 minutes test
Experimental: The controlling effect, repellence & spatial repellence, according to the present invention is determined by testing the Warm Body assay against the yellow fever mosquito, Aedes aegypti Rockefeller strain. […] Observations of controlling efficacy were made on host-seeking females of uniform age, 5 to 10 days old selected as mentioned in the publication mentioned hereinabove. Tested hungry females had access to 10% sugar solution but were not blood-fed. Further information is provided in the accompanying examples. […]
The controlling effect of the compositions according to the present invention was assessed using an adapted Warm Body assay as defined in Kröber T, Kessler S, Frei J, Bourquin M, Guerin PM. […] In this in-vitro assay the number of mosquito landing on a warm body, simulating an attractive host treated with the tested stimuli, was measured in order to assess the repellence effect. […]
In addition, since the inventors were interested by assessing spatial repellence added or not to a deterrent effect, the substance was applied using two different technics. […] Quantitative Headspace Analysis of Selected Odorants from Latrines in Africa and India. […]

SMILES: CCC/C=C1\OC(=O)c2ccccc21 [(3Z)-3-butylidene-2-benzofuran-1-one]
- number of landings in total: less than 10 landings
